These are yes or no findings as the source states them, for the method shown. For some assays here: In cells and extracts the contact can be indirect. Some binding calls cover weakened binding; strength is not graded here. For some assays here: Sequences can lack the tags named with a protein.
T1: F-box (FBX) protein At5g21040 (Arabidopsis thaliana) (UniProt Q94AD8)
T1 sequence: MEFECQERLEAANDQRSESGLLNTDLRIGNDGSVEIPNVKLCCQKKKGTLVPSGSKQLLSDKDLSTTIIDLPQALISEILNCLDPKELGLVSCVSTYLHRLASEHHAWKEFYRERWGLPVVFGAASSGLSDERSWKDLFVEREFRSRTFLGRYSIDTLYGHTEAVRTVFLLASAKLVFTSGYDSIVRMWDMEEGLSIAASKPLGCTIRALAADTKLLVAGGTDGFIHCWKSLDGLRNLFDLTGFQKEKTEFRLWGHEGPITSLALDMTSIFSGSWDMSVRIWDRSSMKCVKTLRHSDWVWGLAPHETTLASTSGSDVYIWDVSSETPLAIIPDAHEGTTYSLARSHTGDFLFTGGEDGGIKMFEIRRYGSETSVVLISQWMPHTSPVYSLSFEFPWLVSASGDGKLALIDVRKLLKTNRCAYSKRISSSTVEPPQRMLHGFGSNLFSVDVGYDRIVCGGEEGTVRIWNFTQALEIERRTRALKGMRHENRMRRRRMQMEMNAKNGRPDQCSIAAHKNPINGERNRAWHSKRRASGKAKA

Sequences of proteins named here, by UniProt entry; tags and fusion partners are left off.
UniProt Q39255: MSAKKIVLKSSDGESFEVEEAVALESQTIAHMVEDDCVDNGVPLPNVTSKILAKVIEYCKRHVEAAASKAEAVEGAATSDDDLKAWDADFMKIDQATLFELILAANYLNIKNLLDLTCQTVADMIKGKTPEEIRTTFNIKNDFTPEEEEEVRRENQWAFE

T2: F-box (FBX) protein At3g03360, BiFC fusion (Arabidopsis thaliana) (UniProt Q84W80)
T2 sequence: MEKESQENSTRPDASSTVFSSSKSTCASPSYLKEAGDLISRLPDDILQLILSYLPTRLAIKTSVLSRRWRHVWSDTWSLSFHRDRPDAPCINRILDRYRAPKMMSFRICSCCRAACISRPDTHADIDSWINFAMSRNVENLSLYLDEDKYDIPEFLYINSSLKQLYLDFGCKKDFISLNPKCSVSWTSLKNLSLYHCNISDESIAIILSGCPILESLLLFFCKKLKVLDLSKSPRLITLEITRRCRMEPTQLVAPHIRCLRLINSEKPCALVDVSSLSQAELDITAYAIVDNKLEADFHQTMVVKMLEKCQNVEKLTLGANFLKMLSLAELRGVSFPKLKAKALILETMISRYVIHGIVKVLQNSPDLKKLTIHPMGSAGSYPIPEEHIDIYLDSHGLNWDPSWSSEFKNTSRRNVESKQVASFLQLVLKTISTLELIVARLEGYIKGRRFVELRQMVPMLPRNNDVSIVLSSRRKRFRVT

T3: F-box (FBX) protein At5g21040, BiFC fusion (Arabidopsis thaliana) (UniProt Q94AD8)
T3 sequence: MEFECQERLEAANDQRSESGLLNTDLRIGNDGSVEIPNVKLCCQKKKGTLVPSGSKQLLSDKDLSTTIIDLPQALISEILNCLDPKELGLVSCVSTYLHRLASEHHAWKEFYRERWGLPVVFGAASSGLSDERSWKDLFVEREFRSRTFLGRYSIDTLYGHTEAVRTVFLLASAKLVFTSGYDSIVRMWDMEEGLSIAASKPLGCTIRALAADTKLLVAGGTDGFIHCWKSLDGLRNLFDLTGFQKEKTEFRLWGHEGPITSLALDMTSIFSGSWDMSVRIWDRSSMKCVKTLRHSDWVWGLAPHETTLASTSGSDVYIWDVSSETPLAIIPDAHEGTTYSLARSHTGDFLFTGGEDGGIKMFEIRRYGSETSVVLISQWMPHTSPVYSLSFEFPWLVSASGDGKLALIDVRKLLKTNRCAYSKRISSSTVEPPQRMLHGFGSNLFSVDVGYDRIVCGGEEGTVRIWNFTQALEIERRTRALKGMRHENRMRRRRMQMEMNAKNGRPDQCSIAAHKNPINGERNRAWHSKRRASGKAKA

T4: F-box (FBX) protein At1g30790, BiFC fusion (Arabidopsis thaliana) (UniProt Q9SY20)
T4 sequence: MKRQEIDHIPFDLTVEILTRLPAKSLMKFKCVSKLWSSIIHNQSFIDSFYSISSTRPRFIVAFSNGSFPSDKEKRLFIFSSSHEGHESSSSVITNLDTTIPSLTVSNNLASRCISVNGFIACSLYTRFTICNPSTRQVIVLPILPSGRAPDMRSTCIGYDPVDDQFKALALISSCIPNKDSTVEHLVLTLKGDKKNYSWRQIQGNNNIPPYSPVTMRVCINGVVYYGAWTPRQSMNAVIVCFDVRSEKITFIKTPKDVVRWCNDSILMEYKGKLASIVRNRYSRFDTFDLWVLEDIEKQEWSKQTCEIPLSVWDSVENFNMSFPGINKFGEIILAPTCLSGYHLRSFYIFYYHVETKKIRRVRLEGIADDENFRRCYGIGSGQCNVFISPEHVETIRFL

T5: F-box (FBX) protein At3g04660, BiFC fusion (Arabidopsis thaliana) (UniProt Q9SR08)
T5 sequence: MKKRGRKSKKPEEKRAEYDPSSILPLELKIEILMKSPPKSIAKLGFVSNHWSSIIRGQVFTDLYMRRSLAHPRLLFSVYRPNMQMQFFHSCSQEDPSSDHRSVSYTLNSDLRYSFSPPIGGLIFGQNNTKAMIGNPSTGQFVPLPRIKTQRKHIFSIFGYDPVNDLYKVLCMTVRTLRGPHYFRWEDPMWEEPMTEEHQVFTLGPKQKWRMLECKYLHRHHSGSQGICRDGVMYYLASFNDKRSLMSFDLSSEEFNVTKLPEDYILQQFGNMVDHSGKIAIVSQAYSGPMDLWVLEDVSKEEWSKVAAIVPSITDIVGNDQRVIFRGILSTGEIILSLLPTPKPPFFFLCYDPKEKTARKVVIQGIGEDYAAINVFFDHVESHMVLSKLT


Assays:
[1] = target: T1, F-box (FBX) protein At5g21040 (Arabidopsis thaliana); test: two-hybrid; FBX fused to Gal4-DB, ASK fused to Gal4-AD; yeast mating; selection on SD without Leu, Trp, His, Ade (high strength) or without Leu, Trp, His (low strength); every combination examined twice
[2] = target: T2, F-box (FBX) protein At3g03360, BiFC fusion (Arabidopsis thaliana); test: split reporter; FBX in pSCYCE (SCFP3A 174-328), ASK in pSCYNE (SCFP3A 1-173), CaMV 35S promoter; Agrobacterium GV3101 infiltrated into Nicotiana tabacum leaves, 28 C for 3 days; fluorescence microscopy
[3] = target: T3, F-box (FBX) protein At5g21040, BiFC fusion (Arabidopsis thaliana); test: as above
[4] = target: T4, F-box (FBX) protein At1g30790, BiFC fusion (Arabidopsis thaliana); test: as above
[5] = target: T5, F-box (FBX) protein At3g04660, BiFC fusion (Arabidopsis thaliana); test: as above

Row | Molecule | binding [1] | binding [2] | binding [3] | binding [4] | binding [5]
1 | Arabidopsis SKP1-LIKE 1 (ASK1) (from UniProt Q39255 1-160) | binds | – | – | – | –
2 | Arabidopsis SKP1-LIKE 1 (ASK1), BiFC fusion (from UniProt Q39255 1-160) | – | binds | binds | binds | –
3 | Arabidopsis SKP1-LIKE 4 (ASK4), BiFC fusion (protein, UniProt Q9LNT9 1-163) MAETKKMIILKSSDGESFEIEEAVAVKSQTIKHMIEDDCADNGIPLPNVTGAILAKVIEYCKKHVEAAAEAGGDKDFYGSAENDELKNWDSEFVKVDQPTLFDLILAANYLNIGGLLDLTCKAVADQMRGKTPEQMRAHFNIKNDYTPEEEAEVRNENKWAFE | – | binds | binds | – | binds
4 | Arabidopsis SKP1-LIKE 11 (ASK11) (protein, UniProt O49484 1-152) MSSKMIVLMSSDGQSFEVEEAVAIQSQTIAHMVEDDCVADGIPLANVESKILVKVIEYCKKHHVDEANPISEEDLNNWDEKFMDLEQSTIFELILAANYLNIKSLLDLTCQTVADMIKGKTPEEIRSTFNIENDFTPEEEEAVRKENQWAFE | binds | – | – | – | –

Other lines, results leading:

Row | binding [1] | binding [2] | binding [3] | binding [4] | binding [5] | Molecule
5 | – | binds | – | binds | binds | Arabidopsis SKP1-LIKE 19 (ASK19), BiFC fusion (protein, UniProt O81058 1-200) MSSKKIVLTSSDGESFKVEEVVARKLQIVGHIIEDDCATNKIPIPNVTGEILAKVIEYCKKHVEDDDDVVETHESSTKGDKTVEEAKKKPDDVAVPESTEGDDEAEDKKEKLNEWDAKFMKDFDIKTIFDIILAANYLNVQGLFDLCSKTIADYIKDMTPEEVRELFNIENDFTPEEEEAIRNENAWTFEQDGKQQVPKP
6 | binds | – | – | – | – | Arabidopsis SKP1-LIKE 12 (ASK12) (protein, UniProt O65674 1-152) MSSKMIVLMSSDGQSFEVEEAVAIQSQTIAHMVEDDCVADGIPLANVESKILVKVIEYCKKYHVDEANPISEEDLNKWDEKFMDLEQSTIFELILAANYLNIKSLFDLTCQTVADMIKGKTPEEIRSTFNIENDFTPEEEEAVRKENQWAFE
7 | – | – | binds | binds | – | Arabidopsis SKP1-LIKE 11 (ASK11), BiFC fusion (protein, UniProt O49484 1-152) MSSKMIVLMSSDGQSFEVEEAVAIQSQTIAHMVEDDCVADGIPLANVESKILVKVIEYCKKHHVDEANPISEEDLNNWDEKFMDLEQSTIFELILAANYLNIKSLLDLTCQTVADMIKGKTPEEIRSTFNIENDFTPEEEEAVRKENQWAFE

Reference: paper PMC3499479
